Experimental data as given in patent publication US20230303682A1.
Results are given in words; binding and its absence hold for the method and conditions named. Some binding calls cover weakened binding; strength is not graded here.

Amino acid sequences for entries named in this document (tags omitted). A change or cut given only in a name is not applied to a line headed by its entry.
UniProt Q04721: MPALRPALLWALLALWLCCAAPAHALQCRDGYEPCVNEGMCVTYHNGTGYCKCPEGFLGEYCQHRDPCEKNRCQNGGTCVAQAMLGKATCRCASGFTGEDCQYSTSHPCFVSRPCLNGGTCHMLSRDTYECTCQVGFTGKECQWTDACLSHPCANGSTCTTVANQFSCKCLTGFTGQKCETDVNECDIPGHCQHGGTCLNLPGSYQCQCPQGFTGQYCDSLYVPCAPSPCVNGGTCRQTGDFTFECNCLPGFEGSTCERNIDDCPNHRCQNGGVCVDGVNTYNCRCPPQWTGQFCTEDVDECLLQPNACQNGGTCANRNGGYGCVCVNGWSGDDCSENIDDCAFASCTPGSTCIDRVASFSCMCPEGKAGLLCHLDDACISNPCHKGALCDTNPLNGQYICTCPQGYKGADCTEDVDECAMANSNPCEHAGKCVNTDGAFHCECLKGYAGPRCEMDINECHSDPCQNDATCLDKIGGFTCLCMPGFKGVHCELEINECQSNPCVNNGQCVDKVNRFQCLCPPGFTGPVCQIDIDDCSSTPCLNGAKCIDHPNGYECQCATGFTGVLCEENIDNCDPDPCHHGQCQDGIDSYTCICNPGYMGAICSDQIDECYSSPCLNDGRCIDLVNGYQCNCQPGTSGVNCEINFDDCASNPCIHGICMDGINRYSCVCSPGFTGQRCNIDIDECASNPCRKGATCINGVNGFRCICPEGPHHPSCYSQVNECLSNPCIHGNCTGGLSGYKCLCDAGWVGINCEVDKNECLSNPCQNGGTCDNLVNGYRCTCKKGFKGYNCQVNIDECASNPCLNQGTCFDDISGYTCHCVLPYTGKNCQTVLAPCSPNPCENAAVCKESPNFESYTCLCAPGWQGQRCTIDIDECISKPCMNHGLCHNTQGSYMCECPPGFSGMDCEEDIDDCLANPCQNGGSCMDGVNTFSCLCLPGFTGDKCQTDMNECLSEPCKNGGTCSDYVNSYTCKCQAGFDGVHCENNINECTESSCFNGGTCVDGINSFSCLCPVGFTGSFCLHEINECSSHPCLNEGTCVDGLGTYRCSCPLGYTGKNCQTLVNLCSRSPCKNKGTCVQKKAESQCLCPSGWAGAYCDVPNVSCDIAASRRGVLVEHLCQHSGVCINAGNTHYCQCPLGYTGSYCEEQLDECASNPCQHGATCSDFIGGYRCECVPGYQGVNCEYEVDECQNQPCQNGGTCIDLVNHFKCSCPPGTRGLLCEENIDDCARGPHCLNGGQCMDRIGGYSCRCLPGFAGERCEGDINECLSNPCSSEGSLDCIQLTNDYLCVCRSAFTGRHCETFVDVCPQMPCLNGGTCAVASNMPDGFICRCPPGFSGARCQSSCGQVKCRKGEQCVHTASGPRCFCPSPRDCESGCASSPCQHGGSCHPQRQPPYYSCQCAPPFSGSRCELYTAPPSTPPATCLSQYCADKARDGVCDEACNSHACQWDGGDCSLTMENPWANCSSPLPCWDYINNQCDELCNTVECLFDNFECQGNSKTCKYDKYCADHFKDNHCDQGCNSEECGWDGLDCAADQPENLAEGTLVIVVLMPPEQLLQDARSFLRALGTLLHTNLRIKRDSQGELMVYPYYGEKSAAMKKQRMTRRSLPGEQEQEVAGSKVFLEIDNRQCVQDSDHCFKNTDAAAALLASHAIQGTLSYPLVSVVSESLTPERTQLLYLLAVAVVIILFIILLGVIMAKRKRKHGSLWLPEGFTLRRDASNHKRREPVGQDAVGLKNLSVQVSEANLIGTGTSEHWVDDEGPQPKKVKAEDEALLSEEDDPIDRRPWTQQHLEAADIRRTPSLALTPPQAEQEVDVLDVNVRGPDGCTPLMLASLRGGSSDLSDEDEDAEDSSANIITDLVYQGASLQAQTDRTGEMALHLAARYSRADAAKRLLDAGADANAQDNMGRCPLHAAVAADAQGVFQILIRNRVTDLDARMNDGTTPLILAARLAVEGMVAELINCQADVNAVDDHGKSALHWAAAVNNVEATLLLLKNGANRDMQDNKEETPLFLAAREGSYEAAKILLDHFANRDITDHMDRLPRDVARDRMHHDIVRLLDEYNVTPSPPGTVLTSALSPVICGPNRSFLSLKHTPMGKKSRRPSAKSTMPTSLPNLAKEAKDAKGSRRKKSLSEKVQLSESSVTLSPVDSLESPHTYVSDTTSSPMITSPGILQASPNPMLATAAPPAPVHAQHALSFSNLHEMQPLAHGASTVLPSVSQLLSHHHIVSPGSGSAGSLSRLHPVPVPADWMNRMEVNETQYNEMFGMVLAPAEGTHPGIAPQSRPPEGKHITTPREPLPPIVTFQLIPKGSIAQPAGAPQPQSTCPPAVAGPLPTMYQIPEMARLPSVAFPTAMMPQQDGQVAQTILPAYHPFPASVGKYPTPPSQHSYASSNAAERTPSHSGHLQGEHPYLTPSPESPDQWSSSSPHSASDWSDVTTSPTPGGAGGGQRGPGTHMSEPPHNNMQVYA

B1: hu1B2.v4L7 (antibody, V domains shown)
VH: EVQLVESGGGLVQPGGSLKLSCAVSGFTFSDFYMEWIRQASGKGLEWIAAQRNKANDFSIVYSASVKDRFTISRDTSKSTLYLQMNSLKTEDTAVYYCSRDGGRLALDAWGQGTLVTVSS
VL: DIQMTQSPSSVSASVGDRVTITCQTSEDIYSGLAWYQQKPGKSPKLLIYGASRLQDGVPSRFSGSGSGTDYTLTISSLQPEDFATYYCQQGFKYPLTFGGGTKVEIK
B2: hu1B2.v8L7 (antibody, V domains shown)
VH: EVQLVESGGGLVQPGGSLKLSCAVSGFTFSDFYMEWIRQASGKGLEWIAAQRNKANDFSIVYSASVKDRFTISRDTSKSTLYLQMNSLKTEDTAVYYCSRDGGKLALDAWGQGTLVTVSS
VL: DIQMTQSPSSVSASVGDRVTITCQTSEDIYSGLAWYQQKPGKSPKLLIYGASRLQDGVPSRFSGSGSGTDYTLTISSLQPEDFATYYCQQGFKYPLTFGGGTKVEIK
B3: hu1B2.v9L7 (antibody, V domains shown)
VH: EVQLVESGGGLVQPGGSLKLSCAVSGFTFSDFYMEWIRQASGKGLEWIAAQRNKANDFSIVYSASVKDRFTISRDTSKSTLYLQMNSLKTEDTAVYYCSRDGGKWGLDAWGQGTLVTVSS
VL: DIQMTQSPSSVSASVGDRVTITCQTSEDIYSGLAWYQQKPGKSPKLLIYGASRLQDGVPSRFSGSGSGTDYTLTISSLQPEDFATYYCQQGFKYPLTFGGGTKVEIK
B4: hu1B2.v2 (antibody, human IgG1, V domains shown)
VH: EVQLVESGGGLVQPGGSLKLSCAVSGFTFSDFYMEWIRQASGKGLEWIAAQRNKANDFSIVYSASVKDRFTISRDTSKSTLYLQMNSLKTEDTAVYYCSRDGGRWGLDAWGQGTLVTVSS
VL: DIQMTQSPSSVSASVGDRVTITCQTSEDIYSGLAWYQQKPGKSPKLLIYGASRLQDGVPSRFSGSGSGTDYTLTISSLQPEDFATYFCQQGFKYPLTFGGGTKVEIK
B5: hu1B2.v4 (antibody, human IgG1, V domains shown)
VH: EVQLVESGGGLVQPGGSLKLSCAVSGFTFSDFYMEWIRQASGKGLEWIAAQRNKANDFSIVYSASVKDRFTISRDTSKSTLYLQMNSLKTEDTAVYYCSRDGGRLALDAWGQGTLVTVSS
VL: DIQMTQSPSSVSASVGDRVTITCQTSEDIYSGLAWYQQKPGKSPKLLIYGASRLQDGVPSRFSGSGSGTDYTLTISSLQPEDFATYFCQQGFKYPLTFGGGTKVEIK
B6: hu1B2.v9 (antibody, human IgG1, V domains shown)
VH: EVQLVESGGGLVQPGGSLKLSCAVSGFTFSDFYMEWIRQASGKGLEWIAAQRNKANDFSIVYSASVKDRFTISRDTSKSTLYLQMNSLKTEDTAVYYCSRDGGKWGLDAWGQGTLVTVSS
VL: DIQMTQSPSSVSASVGDRVTITCQTSEDIYSGLAWYQQKPGKSPKLLIYGASRLQDGVPSRFSGSGSGTDYTLTISSLQPEDFATYFCQQGFKYPLTFGGGTKVEIK
B7: hu1B2.v8 (antibody, human IgG1, V domains shown)
VH: EVQLVESGGGLVQPGGSLKLSCAVSGFTFSDFYMEWIRQASGKGLEWIAAQRNKANDFSIVYSASVKDRFTISRDTSKSTLYLQMNSLKTEDTAVYYCSRDGGKLALDAWGQGTLVTVSS
VL: DIQMTQSPSSVSASVGDRVTITCQTSEDIYSGLAWYQQKPGKSPKLLIYGASRLQDGVPSRFSGSGSGTDYTLTISSLQPEDFATYFCQQGFKYPLTFGGGTKVEIK

These binders were tested against huNotch2-EGF6-10 (human) (UniProt Q04721) (assay: SPR BIAcore).

binding, binds:
B1
B2
B3

These binders were tested against huNotch2-EGF6-10 (human) (UniProt Q04721) (assay: BIAcore binding kinetic analysis of IgG1 variants).

binding, binds:
B4
B5
B6
B7
